This note sets out measurements from the supplement of paper PMC10735217.

Some of the results follow. Repeats in this data set agree poorly, so a single value says little.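 Human kidney-derived cells stably carry a construct in which eight TEAD-binding elements drive luciferase, measured by luminescence in a drug-repurposing library screen. A hit is any compound whose signal exceeds the plate mean by more than five robust Z scores.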

For this experiment, the system named is HEK293A TEAD-LUC reporter. Nature of the experiment: TEAD-luciferase reporter activity (YAP activation), robust Z score vs plate; higher = stronger YAP/TEAD activation. To be noted: 24 h. On the technique in general: A reporter such as luciferase makes a cellular process visible.

With `COc1cc(N)c(Cl)cc1C(=O)NC1CN2CCC1CC2` (centres undefined) [Zacopride], the TEAD-luciferase reporter activity was inactive: -0.818 (compound concentration: 200 nM), inactive: 0.472 (compound concentration: 2 uM) and inactive: 0.148 (compound concentration: 10 uM).

For the compound `CN1C(=O)CN=C(c2ccc(Cl)cc2)c2cc(Cl)ccc21` [Chlordiazepam], the TEAD-luciferase reporter activity is inactive: -0.925 (compound concentration: 200 nM), inactive: 1.18 (compound concentration: 2 uM) and inactive: -2.22 (compound concentration: 10 uM).

Turning to `C=CCC1(C(C)CCC)C(=O)N=C(O)NC1=O` (centres undefined) [Secobarbital], the TEAD-luciferase reporter activity runs as follows: (compound concentration: 200 nM) inactive: -1.57; (compound concentration: 2 uM) inactive: -1.58; (compound concentration: 10 uM) inactive: -0.0472.

Turning to `CN1CCc2cc3c(cc2C1O)OCO3` (centres undefined), the TEAD-luciferase reporter activity (compound concentration: 200 nM) is inactive: -1.22 and the TEAD-luciferase reporter activity (compound concentration: 10 uM) was inactive: 0.173.

As for `C=C1[C@@H](C)[C@H]2[C@H](Cc3ccccc3)NC(=O)[C@]23OC(=O)/C=C/[C@H](O)CCC[C@@H](C)C/C=C/[C@H]3[C@@H]1O`, the TEAD-luciferase reporter activity (compound concentration: 200 nM) is inactive: -1.39 and the TEAD-luciferase reporter activity (compound concentration: 10 uM) is inactive: -1.87.

For the compound `C=C1[C@@H](C)[C@H]2[C@H](Cc3ccccc3)NC(=O)[C@]23OC(=O)/C=C/[C@H](O)CCC[C@@H](C)C/C=C/[C@H]3[C@@H]1O` [Cytochalasin B], the TEAD-luciferase reporter activity (compound concentration: 2 uM) was inactive: 1.31.

Take `CCCC(C)C1(CC)C(=O)N=C([S-])NC1=O` (centres undefined) [Thiopental sodium]: the TEAD-luciferase reporter activity is, setting by setting: (compound concentration: 200 nM) inactive: 0.14; (compound concentration: 2 uM) inactive: -0.392; (compound concentration: 10 uM) inactive: -0.254.

Take `CC[N+]1(C)[C@@H]2C[C@@H](OC(=O)[C@H](CO)c3ccccc3)C[C@H]1[C@@H]1O[C@@H]12` (some centres undefined): the TEAD-luciferase reporter activity runs as follows: (compound concentration: 200 nM) inactive: -0.509; (compound concentration: 2 uM) inactive: -0.0468; (compound concentration: 10 uM) inactive: 0.681.

Take `O=[Se]([O-])[O-]` [Selenite sodium]: the TEAD-luciferase reporter activity was inactive: -0.155 (compound concentration: 200 nM) and inactive: -0.668 (compound concentration: 10 uM).

As for `O=C1CCC[C@@H]2[C@H]3CCCN4CCC[C@@H](CN12)[C@@H]34` [Sophocardipine], the TEAD-luciferase reporter activity is inactive: 0.327 (compound concentration: 200 nM), inactive: -2.1 (compound concentration: 2 uM) and inactive: -2.14 (compound concentration: 10 uM).

As for `Oc1ccc2c3c1O[C@H]1c4ncc(-c5ccc(Cl)cc5)cc4C[C@@]4(O)C(C2)N(CC2CC2)CCC314` (some centres undefined), the TEAD-luciferase reporter activity (compound concentration: 200 nM) is inactive: -1.21, the TEAD-luciferase reporter activity (compound concentration: 2 uM) is inactive: -1.25 and the TEAD-luciferase reporter activity (compound concentration: 10 uM) was inactive: 0.181.

Consider `CCc1cccc(CC)c1-n1c(=O)[nH]c2ccccc2c1=O`, for which the TEAD-luciferase reporter activity was inactive: 0.285 (compound concentration: 200 nM), inactive: 0.065 (compound concentration: 2 uM) and inactive: 1.42 (compound concentration: 10 uM).

In the case of `Oc1ccc(CCN2CCC(Nc3nc4ccccc4n3Cc3ccc(F)cc3)CC2)cc1`, the TEAD-luciferase reporter activity was active: 9.94 (compound concentration: 200 nM), inactive: -0.373 (compound concentration: 2 uM) and inactive: -0.565 (compound concentration: 10 uM).

In the case of `CCC1(c2ccc(N)cc2)CCC(=O)NC1=O` (centres undefined) [Aminoglutethimide], the TEAD-luciferase reporter activity by setting is: (compound concentration: 200 nM) inactive: 4.02; (compound concentration: 10 uM) inactive: -0.573.

On to `CCC1(c2ccc(N)cc2)CCC(=O)NC1=O` (centres undefined) [aminoglutethimide], for which the TEAD-luciferase reporter activity (compound concentration: 2 uM) is inactive: -0.364.

In the case of `CCN(CC)C(=O)C1(c2ccccc2)CCNCC1`, the TEAD-luciferase reporter activity is, setting by setting: (compound concentration: 200 nM) inactive: 0.0301; (compound concentration: 2 uM) inactive: -0.176; (compound concentration: 10 uM) inactive: 0.957.

As to `Cc1nnc2n1-c1ccc(Cl)cc1C(c1ccccc1)=NC2`, the TEAD-luciferase reporter activity is inactive: -3 (compound concentration: 200 nM) and inactive: -1.97 (compound concentration: 10 uM).

As for `CC(Cc1ccccc1)NCCn1cnc2c1c(=O)n(C)c(=O)n2C` (centres undefined), the TEAD-luciferase reporter activity (compound concentration: 200 nM) is inactive: -0.354, the TEAD-luciferase reporter activity (compound concentration: 2 uM) was inactive: 0.373 and the TEAD-luciferase reporter activity (compound concentration: 10 uM) was inactive: -0.603.

On to `CC1(C)C(C=C(Cl)Cl)C1C(=O)OC(C#N)c1ccc(F)c(Oc2ccccc2)c1` (centres undefined), for which the TEAD-luciferase reporter activity is inactive: -0.838 (compound concentration: 200 nM), inactive: -0.267 (compound concentration: 2 uM) and inactive: -0.000586 (compound concentration: 10 uM).

Turning to `CN1CCC2=C(C1)C(c1ccccc1)c1ccccc12` (centres undefined), the TEAD-luciferase reporter activity reads like this: (compound concentration: 200 nM) inactive: 4.89; (compound concentration: 2 uM) inactive: 0.644; (compound concentration: 10 uM) inactive: 2.23.

`NC1=NCC(c2ccc(C(F)(F)F)cc2)O1` (centres undefined): the TEAD-luciferase reporter activity (compound concentration: 200 nM) was inactive: -0.83, the TEAD-luciferase reporter activity (compound concentration: 2 uM) is inactive: -0.779 and the TEAD-luciferase reporter activity (compound concentration: 10 uM) was inactive: -1.11.

Regarding `Cc1cc(C(C#N)c2ccc(Cl)cc2)c(Cl)cc1NC(=O)c1cc(I)cc(I)c1O` (centres undefined), the TEAD-luciferase reporter activity reads like this: (compound concentration: 200 nM) inactive: -1.29; (compound concentration: 2 uM) inactive: -1.18; (compound concentration: 10 uM) inactive: -0.202.

`COc1cc([C@@H]2c3cc4c(cc3[C@@H](NC(=O)CNCCCNCCCCNCCCN)[C@H]3COC(=O)[C@H]23)OCO4)cc(OC)c1O`: the TEAD-luciferase reporter activity runs as follows: (compound concentration: 200 nM) inactive: -0.853; (compound concentration: 2 uM) inactive: -0.697; (compound concentration: 10 uM) inactive: -1.13.

Take `C[N+]1(CCC(C(N)=O)(c2ccccc2)c2ccccc2)CCCCCC1`: the TEAD-luciferase reporter activity (compound concentration: 200 nM) was inactive: 0.0104, the TEAD-luciferase reporter activity (compound concentration: 2 uM) was inactive: -0.958 and the TEAD-luciferase reporter activity (compound concentration: 10 uM) was inactive: 4.2.

On to `CCN(CC)Cc1nccn1-c1ccc([N+](=O)[O-])cc1C(=O)c1ccccc1Cl` [nizofe], for which the TEAD-luciferase reporter activity runs as follows: (compound concentration: 200 nM) inactive: -0.234; (compound concentration: 2 uM) inactive: 0.855; (compound concentration: 10 uM) inactive: -0.713.

`C#C[C@]1(O)CC[C@H]2[C@@H]3CCC4=CC(=O)CC[C@]4(C)[C@H]3CC[C@@]21C`: the TEAD-luciferase reporter activity (compound concentration: 2 uM) was inactive: -0.0405.

As for `C#C[C@]1(O)CC[C@H]2[C@@H]3CCC4=CC(=O)CC[C@]4(C)[C@H]3CC[C@@]21C` [Ethisterone], the TEAD-luciferase reporter activity runs as follows: (compound concentration: 200 nM) inactive: -1.42; (compound concentration: 10 uM) inactive: 1.11.

In the case of `Cc1sc2c(c1C)C(c1ccc(Cl)cc1)=N[C@@H](CC(O)=NCCCN1CCN(C)CC1)c1nnc(C)n1-2`, the TEAD-luciferase reporter activity is, setting by setting: (compound concentration: 200 nM) active: 23.9; (compound concentration: 10 uM) active: 15.7.

In the case of `CN1CCc2cc(Cl)c(O)cc2[C@H]2c3ccccc3CC[C@@H]21` [ecopipam], the TEAD-luciferase reporter activity (compound concentration: 200 nM) is inactive: 0.841, the TEAD-luciferase reporter activity (compound concentration: 2 uM) was inactive: -0.66 and the TEAD-luciferase reporter activity (compound concentration: 10 uM) is inactive: -1.45.
